Measurements from US20050148495A1, “Methods and materials including for treating acne” (priority 2003, published 2005).
Where two headings read alike, the source gives them in different places. Non-standard residues stand in square brackets, D forms with d. Residues, ends and D or L forms follow the SMILES beside them. d1Nal = N[C@H](Cc1cccc2ccccc12)C(=O)O

System: P. acnes strain (ATCC 6919)
Conditions: for Generation: passage at which the resistant strain emerged

SMILES	Resistance Rate	resistance rate	resistant colonies after 17 passages	Generation	passages until intermediate-resistant (IR) strains (MIC=64 μg/mL) emerged [passages]	passages until resistant (R) strains (MIC>64 μg/mL) emerged [passages]	Resistance Rate (P. acnes ATCC 6919, listed as Erythromycin IR)	Resistance Rate (P. acnes ATCC 6919, listed as Erythromycin R)	Generation (listed as Erythromycin IR)	Generation (listed as Erythromycin R)
CC(C)C[C@@H](NC(=O)[C@H](N)CCCCN)C(=O)N[C@H](Cc1ccccc1)C(=O)N[C@H](CCCNC(=N)N)C(=O)N[C@H](Cc1cccc2ccccc12)C(=O)N[C@H](CCC(N)=O)C(=O)N[C@H](C)C(=O)N[C@H](CCCCN)C(=O)N[C@H](Cc1cccc2ccccc12)C(N)=O [XMP.629, NH2-lys-leu-phe-arg-(3-(1-naphthyl)-ala)-gln-ala-lys-(3-(1-naphthyl)-ala)-CONH2] (H-[dK][dL][dF][dR][d1Nal][dQ][dA][dK][d1Nal]-NH2)	<1.1 × 10^−8	< 1.2×10^8	no resistant colonies were formed	ND@17	–	–	–	–	–	–
CC[C@H]1OC(=O)[C@H](C)[C@@H](O[C@H]2C[C@@](C)(OC)[C@@H](O)[C@H](C)O2)[C@H](C)[C@@H](O[C@@H]2O[C@H](C)C[C@H](N(C)C)[C@H]2O)[C@](C)(O)C[C@@H](C)C(=O)[C@H](C)[C@@H](O)[C@]1(C)O [Erythromycin, reference compound]	–	–	–	–	11	14	5 × 10^−8	7 × 10^−8	11	14
